We go through 17 compounds from the supplement of paper PMC12009310.

The structures appear in SMILES notation. Structures can show the parent of a compound that is named as a salt. ± gives the standard deviation of the averaged measurements. Some of the results follow. Baselines shift from plate to plate; read single values as rough.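 The cells are a mouse kidney inner medullary collecting duct line, silenced either for the ciliary gene Rpgrip1l or with a non-targeting control siRNA. Primary scores are means of two runs against batch controls; in the follow-up screen a hit raised cilia by at least 2 over its matching control, and compounds dropping cell number by 2 or more were excluded. The cells are a mouse kidney inner medullary collecting duct line, silenced either for the ciliary gene Rpgrip1l or with a non-targeting control siRNA.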

For experiment [1], the system named is mIMCD3. The experiment is described as follows: robust z score of cell number vs plate controls; higher = more cells (less cytotoxic). The note with it: 10 µM, 48 h.
In experiment [2] the test system is mIMCD3. The experiment is described as follows: robust z score of cilia incidence (% cells with single cilium) vs plate controls; higher = more ciliated cells. Conditions: 10 µM; 48 h; siRNA: siScr.
Experiment [3] concerns mIMCD3. The experiment is described as follows: robust z score of cilia incidence (% cells with single cilium) vs plate controls; higher = more ciliated cells (rescue of cilia loss). The note with it: 10 µM; 48 h; siRNA: siRpgrip1l.
The test system of experiment [4] is mIMCD3. The experiment is described as follows: robust z cell number difference from vehicle control (robust z score difference); higher = more cells. Conditions: 10 µM, 48 h.
The test system of experiment [5] is mIMCD3. As to the kind of experiment: robust z cilia incidence difference from vehicle control (robust z score difference); higher = more ciliated cells. Conditions: 10 µM; 48 h; siRNA: siScr.
Experiment [6] deals with mIMCD3. As to the kind of experiment: robust z cilia incidence difference from vehicle control (robust z score difference); higher = more ciliated cells (rescue). The note with it: 10 µM; 48 h; siRNA: siRpgrip1l.

`Fc1ccc(C(c2ccc(F)cc2)N2CCN(C/C=C/c3ccccc3)CC2)cc1` [Flunarizine dihydrochloride]: the entries for the “robust z score of cell number” value in experiment [1] (siRNA: siRpgrip1l) and in experiment [1] (siRNA: siScr) were -66.4 ± 55 and -90.6 ± 82, respectively. Further, the “robust z score of cilia incidence” value in experiment [2] is -4.41 ± 0.63; in experiment [3], -22.7 ± 4.3.

With `O=C(O)Cn1c(C(=O)Nc2nc(-c3ccccc3Cl)cs2)cc2ccccc21`, the “robust z score of cell number” value in experiment [1] (siRNA: siRpgrip1l) was -24.2 ± 18; in experiment [1] (siRNA: siScr) it was -30.7 ± 17. The “robust z score of cilia incidence” value is -5.84 ± 3.9 in experiment [2] and -29.9 ± 13 in experiment [3].

`Cn1cc(/C=C2\C(=O)Nc3cccnc32)c2ccccc21`: the “robust z score of cell number” value is -11.8 ± 2.1 in experiment [1] (siRNA: siRpgrip1l) and -18.4 ± 16 in experiment [1] (siRNA: siScr). Moreover, the “robust z score of cilia incidence” value is -1.26 ± 2.1 in experiment [2] and -18.6 ± 15 in experiment [3].

Turning to `O=C(c1ccc(F)cc1)C1CCN(CCn2c(=S)[nH]c3ccccc3c2=O)CC1` [Altanserin hydrochloride], the “robust z score of cell number” value was -10 ± 2.8 in experiment [1] (siRNA: siRpgrip1l) and -12.3 ± 3 in experiment [1] (siRNA: siScr). Further, the entries for the “robust z score of cilia incidence” value in experiment [2] and in experiment [3] were -67 ± 55 and -77 ± 58, respectively.

As to `CCC1=C(C)CN(C(=O)NCCc2ccc(S(=O)(=O)NC(=O)N[C@H]3CC[C@H](C)CC3)cc2)C1=O` [Glimepiride], the entries for the “robust z score of cell number” value in experiment [1] (siRNA: siRpgrip1l) and in experiment [1] (siRNA: siScr) were -6.79 ± 4.3 and -6.71 ± 8.2, respectively. Besides, the entries for the “robust z score of cilia incidence” value in experiment [2] and in experiment [3] were -13.8 ± 22 and -7.78 ± 7.4, respectively.

As to `COc1cccc(/C=N/N=C/c2cccc(OC)c2)c1`, the “robust z score of cell number” value stood at 0.444 ± 1.2 in experiment [1] (siRNA: siRpgrip1l) and 0.976 ± 4.4 in experiment [1] (siRNA: siScr). The entries for the “robust z score of cilia incidence” value in experiment [2] and in experiment [3] were 6.34 ± 12 and -15.2 ± 8.4, respectively.

On to `Cc1c(C(=O)NN2CCCCC2)nn(-c2ccc(Cl)cc2Cl)c1-c1ccc(I)cc1`, for which the “robust z cell number difference” value in experiment [4] (siRNA: siRpgrip1l) is -16.3; in experiment [4] (siRNA: siScr) it was -8.69 ± 10. Moreover, the entries for the “robust z score of cilia incidence” value in experiment [2] and in experiment [3] were -4.41 ± 0.78 and -9.55 ± 15, respectively. Also, the “robust z cilia incidence difference” value was -10.9 ± 16 in experiment [5] and -52.3 in experiment [6].

Take `CC1(C)NC(=O)N(c2ccc([N+](=O)[O-])c(C(F)(F)F)c2)C1=O` [Nilutamide]: the entries for the “robust z score of cell number” value in experiment [1] (siRNA: siRpgrip1l) and in experiment [1] (siRNA: siScr) were -12 ± 10 and -7.43 ± 0.21, respectively. In addition, the results for the “robust z score of cilia incidence” value in experiment [2] and in experiment [3] were 3.801 ± 0.035 and -10.9 ± 4.6, respectively.

Turning to `CC(C)(C)c1ccc(/C=C/C(=O)Nc2ccc3c(c2)OCCO3)cc1`, the “robust z score of cell number” value in experiment [1] (siRNA: siRpgrip1l) is -29.8 ± 15; in experiment [1] (siRNA: siScr), -27 ± 4.7. For the same compound, the “robust z score of cilia incidence” value in experiment [2] is -30.8 ± 23; in experiment [3], -27.5 ± 13.

For the compound `CC1=C(C(=O)OCCN(Cc2ccccc2)c2ccccc2)C(c2cccc([N+](=O)[O-])c2)C(P2(=O)OCC(C)(C)CO2)=C(C)N1` (stereo not drawn) [Efonidipine hydrochloride monoethanolate], the “robust z score of cell number” value in experiment [1] (siRNA: siRpgrip1l) was -7.98 ± 2.1; in experiment [1] (siRNA: siScr), -15.6 ± 6.5. The “robust z score of cilia incidence” value was -4.12 ± 9.8 in experiment [2] and -10.2 ± 5.9 in experiment [3].

Take `Cc1cccc(CCN2CCC(C(=O)c3ccc(NS(C)(=O)=O)cc3)CC2)n1` [E-4031 dihydrochloride]: the “robust z score of cilia incidence” value in experiment [2] is -27.6 ± 17; in experiment [3], -41.9 ± 25.

As for `c1ccc2cc(C3=NCCN3)ncc2c1` [BU 226 hydrochloride], the “robust z score of cell number” value was -12.4 ± 7.7 in experiment [1] (siRNA: siRpgrip1l) and 0.77 ± 2.7 in experiment [1] (siRNA: siScr). For the same compound, the “robust z score of cilia incidence” value was 1.14 ± 1.3 in experiment [2] and -14.7 ± 0.61 in experiment [3].

With `O=C1NC(=O)c2cc(Nc3ccccc3)c(Nc3ccccc3)cc21`, the “robust z score of cell number” value in experiment [1] (siRNA: siRpgrip1l) was -28.7 ± 26; in experiment [1] (siRNA: siScr), -12.9 ± 12. Moreover, the “robust z score of cilia incidence” value in experiment [2] is -11.7 ± 4; in experiment [3], -18.1 ± 10.

As for `CC1(C)CCC(C)(C)c2cc(C(=O)Nc3ccc(C(=O)O)cc3)ccc21`, the “robust z score of cell number” value is -9.84 ± 2.9 in experiment [1] (siRNA: siRpgrip1l) and -11.3 ± 0.64 in experiment [1] (siRNA: siScr). Besides, the “robust z score of cilia incidence” value in experiment [2] was 2.28 ± 0.92; in experiment [3], -5.76 ± 0.18.

As to `Cc1ccc(NC2=CC(=O)c3sc(C)nc3C2=O)cc1` [Ryuvidine], the “robust z score of cell number” value was -33.1 ± 11 in experiment [1] (siRNA: siRpgrip1l) and -144 ± 110 in experiment [1] (siRNA: siScr). In addition, the “robust z score of cilia incidence” value was -61.5 ± 12 in experiment [2] and -55.9 ± 7.3 in experiment [3].

Consider `COc1cc2c(CCNC(C)=O)c[nH]c2cc1Cl` [6-Chloromelatonin], for which the “robust z score of cell number” value in experiment [1] (siRNA: siRpgrip1l) is 7.32 ± 15; in experiment [1] (siRNA: siScr), -1.62 ± 1.1. The results for the “robust z score of cilia incidence” value in experiment [2] and in experiment [3] were 1.41 ± 0.071 and -7.76 ± 5, respectively.

Consider `O=C1NC(=O)c2cc(Nc3ccc(F)cc3)c(Nc3ccc(F)cc3)cc21`, for which the entries for the “robust z score of cell number” value in experiment [1] (siRNA: siRpgrip1l) and in experiment [1] (siRNA: siScr) were -29.9 ± 15 and -27.2 ± 5, respectively. Moreover, the “robust z score of cilia incidence” value in experiment [2] is -52.4 ± 39; in experiment [3], -35 ± 20.
